Test results as given in publication doi:10.1101/2024.05.31.596839.
These are yes or no findings as the source states them, for the method shown. Binding calls can cover weak binding; strength is not graded here. Values belong to the binder of their own block, whether it stands above or below them.

Biological target: Tejas (Drosophila)
Assay: ReLo

binding: binds
B1: KrimpΔ84-284 (protein, UniProt A1ZAC4)
chain: MNLEDISMIMKLFDSNMHKLQGNLRSYQTEMHQIHKELTEKLSHADLLYRSLIPLHDHLVASLSEVNAHVMKLNVQLHINRQSRNRFLLPPKGGTETTRRDIYNQILKDMAAFPENTIVTAVLASVDVTDNCAYVAKWDESSDRIKKVLQRQLPLQELDQLPDYGDIFAVLDSINNIITRITINSSSAGGGYDAYLIDFGEHIHFDGNETIFKLPDDIKRLPAQAIRCDLINCDIANMHCFVNTYIKIRVHENNNSTLVAEPVIDRLSRPTKTNTTKYPAGITEDDMAMLNEIDESTSDPLKAVLGFRPKDEQRICRHYDPKLNGCFKGNNCRFAHEPFAPNGATKDVELARALPETIFDTTVHFEIGSIVGILITFINGPTEVYGQFLDGSPPLVWDKKDVPENKRTFKSKPRLLDIVLALYSDGCFYRAQIIDEFPSEYMIFYVDYGNTEFVPLSCLAPCENVDSFKPHRVFSFHIEGIVRSKNLTHQKTIECIEYLKSKLLNTEMNVHLVQRLPDGFLIRFLDDWKYIPEQLLQRNYAQVSQ

binding: binds
B2: KrimpΔ285-461 (protein, UniProt A1ZAC4)
chain: MNLEDISMIMKLFDSNMHKLQGNLRSYQTEMHQIHKELTEKLSHADLLYRSLIPLHDHLVASLSEVNAHVMKLNVQLHINRQSVRLGDYEYYEKSIDNPYSSIRSGLQAIEKPGCAEAICQSSKPAFVECLPSSTSEEVPVVAVQEASSTNQLDAISVVNENLSEERDATPQPLAVSKNMEETMPSNPFHEQLEGSLEEIPVGSKIVVETEKANNPVRSEASAPATSDNQSLLAAKQGTQTIGTGICNKISKSTINMPNNWQLENPTEVTAASIEKVNKLPKSPEPVIDRLSRPTKTNTTKYPAGITEDDMAMLNEIDESTSDPLKAVLGFRPKDEQRICRHYDPKLNGCFKGNNCRFAHEPFAPNGATKDVELARALPETIFDTTVHFEIGSIVGILITFINGPTEVYGQFLDGSPPLVWDKKDVPENKRTFKSKPRLLDIVLALYSDGCFYRAQIIDEFPSEYMIFYVDYGNTEFVPLSCLAPCENVDSFKPHRVFSFHIEGIVRSKNLTHQKTIECIEYLKSKLLNTEMNVHLVQRLPDGFLIRFLDDWKYIPEQLLQRNYAQVSQ

binding: binds
B3: KrimperΔ483-494 (protein, UniProt A1ZAC4)
chain: MNLEDISMIMKLFDSNMHKLQGNLRSYQTEMHQIHKELTEKLSHADLLYRSLIPLHDHLVASLSEVNAHVMKLNVQLHINRQSVRLGDYEYYEKSIDNPYSSIRSGLQAIEKPGCAEAICQSSKPAFVECLPSSTSEEVPVVAVQEASSTNQLDAISVVNENLSEERDATPQPLAVSKNMEETMPSNPFHEQLEGSLEEIPVGSKIVVETEKANNPVRSEASAPATSDNQSLLAAKQGTQTIGTGICNKISKSTINMPNNWQLENPTEVTAASIEKVNKLPKSPRNRFLLPPKGGTETTRRDIYNQILKDMAAFPENTIVTAVLASVDVTDNCAYVAKWDESSDRIKKVLQRQLPLQELDQLPDYGDIFAVLDSINNIITRITINSSSAGGGYDAYLIDFGEHIHFDGNETIFKLPDDIKRLPAQAIRCDLINCDIANMHCFVNTYIKIRVHENNNSTLVAEPVIDRLSRPTKTNTTKYPAGDESTSDPLKAVLGFRPKDEQRICRHYDPKLNGCFKGNNCRFAHEPFAPNGATKDVELARALPETIFDTTVHFEIGSIVGILITFINGPTEVYGQFLDGSPPLVWDKKDVPENKRTFKSKPRLLDIVLALYSDGCFYRAQIIDEFPSEYMIFYVDYGNTEFVPLSCLAPCENVDSFKPHRVFSFHIEGIVRSKNLTHQKTIECIEYLKSKLLNTEMNVHLVQRLPDGFLIRFLDDWKYIPEQLLQRNYAQVSQ
